Test results reported in patent US8557777B2, “Methods for treating cancer using prostate specific antigen and tumor endothelial marker peptides” (The Board of Trustees of the University of Illinois, priority 2010, dated 2013).
Values joined by “and” are separate entries in the source; they are usually repeats but may differ in a detail not shown here. Equal values may be shown once. Part of at least one peptide drawing is inferred or uncertain, most often the ends.

Key:
patients with CaP = assay: Overall survival per Kaplan-Meier analysis; type: in vivo, human; conditions: as of May 1, 2010; 13 of 28
[1] = system: CD8+ PSA146-154 peptide-tetramer+ T-cells; assay: Tetramer analysis of PSA146-154 peptide stimulated PBMC of vaccinated patients; type: in vivo, human; conditions: over pre-vaccine levels; one line per patient

## CC(C)C[C@H](NC(=O)[C@H](CC(=O)O)NC(=O)[C@@H](NC(=O)[C@H](CS)NC(=O)[C@H](CCC(N)=O)NC(=O)[C@H](CC(C)C)NC(=O)[C@@H](N)CCCCN)C(C)C)C(=O)N[C@@H](Cc1c[nH]cn1)C(=O)N[C@H](C(=O)O)C(C)C [PSA146-154 peptide]
Patients with CaP
  patients who had died: 46%
[1]
  Fold increase in tetramer week 26: 29.25 fold and 15.85 fold and 11.39 fold and 1.75 fold and 6.11 fold and 0.69 fold and 1.58 fold and 2.71 fold and 2.09 fold and 4.91 fold and 1.72 fold (2×) and 1.42 fold and 3.09 fold and 0.51 fold and 0.35 fold and 82.11 fold and 1.13 fold and 1.31 fold and 0.80 fold and 10.79 fold and 1.11 fold and 0.46 fold and 4.47 fold and 2.50 fold and 2.93 fold and 22.25 fold and 22.77 fold
  Fold increase in tetramer week 52: 12.5 fold and 2.47 fold and 6.97 fold and 1.71 fold and 3.8 fold and 0.26 fold (2×) and 0.69 fold and 5.28 fold and 0.23 fold and 4.82 fold and 0.09 fold (2×) and 0.06 fold and 5.83 fold and 5.43 fold and 0.81 fold and 1.05 fold and 1.37 fold and 5.06 fold and 0.07 fold and 1.85 fold and 0.24 fold and 0.08 fold and 0.02 fold and 34.49 fold and 121.29 fold
